# Among all 340,000 compounds or so, about 170 (0.05%) were called active. Inconclusive means that the source gave no clear call. Such entries were picked first, then a sample of the others. The call rests on the fitted dose curve; in most records, active means well fitted inhibition curve with a large enough effect in the signal ratio, with a control signal flat (not every such curve was filed as active); inconclusive means small, poorly fitted or top-dose-only effect, or effect the other way, or a change in a side signal; inactive means flat fitted curve, though single readings scatter; the % refers to the signal ratio. Potencies of inconclusive entries are doubtful fits and often do not repeat.
# Assay: qHTS Assay to Find Inhibitors of Chronic Active B-Cell Receptor Signaling;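 on activity change, negative = inhibition: plate controls were basal doxycycline-induced cells for no effect and cells given 10 µM MG132 for full effect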
# Settings: ABC-DLBCL IkBa-CBG/CBR reporter, luminescence ratio (green luciferase fused to IkBa over red control in TMD8 lymphoma cells), 4 h; activity change, negative = inhibition: at 46.1 µM (top of the series)
# Method in brief: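 TMD8 ABC-DLBCL cells carrying doxycycline-inducible green luciferase fused to IkappaBalpha plus unfused red luciferase were exposed to compounds (up to 46 uM) for 4 hrs at 37C. Activity came from the overlap-corrected green/red luminescence ratio.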
# Potency means the concentration at half of the fitted maximal effect.
Structure (SMILES),Potency,"activity change, negative = inhibition"
CN(C)S(=O)(=O)c1cccc(-c2csc(=Nc3ccccc3)n2CCCN2CCOCC2)c1,"inconclusive: 14.1 µM [falling, partial curve, poor fit]",–
Cc1ccc(N2CCN(S(=O)(=O)c3ccc4oc(=O)ccc4c3)CC2)c(C)c1,–,inconclusive: 6%
CCOC(=O)C1CCCN(Cc2cc(=O)oc3cc(C)ccc23)C1 (centres undefined),–,inconclusive: -14.2%
Cc1ccc(-n2ncc3c(SCc4ccccn4)ncnc32)c(C)c1,–,inactive: 1.83%
Fc1ccccc1N1CCN(Cc2nc(-c3ccc(Cl)cc3Cl)no2)CC1,–,inconclusive: -4.5%
Cc1ccc(CSc2nc3ccccc3c(=O)n2CCCC(=O)NCc2ccco2)cc1,–,inactive: -5.04%
COc1ccc(S(=O)(=O)NCC2CCCN(C(=O)CC3CCCC3)C2)cc1 (centres undefined),–,inconclusive: 19.8%
O=C1OCCN1C(=O)[C@H]1[C@H](c2ccc([N+](=O)[O-])cc2)C(c2ccc(F)cc2)=NN1c1ccc(Br)cc1,–,inactive: 13.2%
CCC(CC)COC(=O)C1=C(C)NC(=O)NC1c1cccc([N+](=O)[O-])c1 (centres undefined),–,inconclusive: -17.2%
Cc1cc2c(s1)c1cnn(-c3ccccc3)c(=O)c1n2C,–,inconclusive: -2.41%
COc1cc(C(=O)N/N=C/c2ccccn2)cc(OC)c1OC,"inconclusive: 12.6 µM [falling, partial curve, poor fit]",–
COc1cccc(-c2ccc(NC(=O)C3CCCN(Cc4cnn(C(C)C)c4)C3)cc2)c1 (centres undefined),"inconclusive: 20 µM [falling, single point]",–
COc1cccc(-c2c(C(=O)N/N=C/c3ccc(C)s3)nnn2-c2nonc2N)c1,–,inactive: 4.44%
COc1ccc(N(C(=O)CCl)C(C(=O)NCCc2ccccc2)c2cccs2)cc1Cl (centres undefined),"inconclusive: 20.6 µM [falling, single point]",–
COCCOC(=O)c1c(NC(=O)COC(=O)Cc2cccc(OC)c2)sc(C(N)=O)c1C,–,inactive: -3.49%
CC(C)(C)n1cnc2cc(NCc3cccs3)ccc21,"inconclusive: 15.8 µM [falling, single point]",–
COc1cc(-c2nc(-c3ccc4c(c3)-c3ccccc3S4(=O)=O)c(-c3ccccc3)[nH]2)cc(OC)c1O,"inconclusive: 0.92 µM [falling, full curve, poor fit]",–
COc1cccc(NC(=O)c2ccc(NC(C)=O)cc2)c1,"inconclusive: 3.66 µM [falling, full curve]",–
NC(=O)Nc1ccc(C(=O)OCC(=O)Nc2sccc2C(N)=O)cc1,–,inconclusive: -7.59%
NS(=O)(=O)c1cccc(NC(=O)COC(=O)c2cc([N+](=O)[O-])ccc2N2CCCC2)c1,"inconclusive: 23.1 µM [falling, partial curve, poor fit]",–
COc1cc(/C=C2/C(=O)NN(c3cccc(F)c3)C2=O)ccc1OC(=O)c1ccco1,–,inactive: -14.9%
NS(=O)(=O)c1ccc(NC(=O)COC(=O)COc2ccccc2)cc1,–,inactive: -2.09%
Cc1ccc(-n2ncc3c(NCc4ccco4)ncnc32)cc1C,–,inconclusive: 15.9%
CCC(CC)=NNc1cccc([N+](=O)[O-])c1,–,inconclusive: 7.47%
O=C(CSc1n[nH]c(-c2ccccn2)n1)Nc1ccc(F)cc1,–,inactive: 1.76%

# Quoted from the listing.
# In activity change, negative = inhibition, `CCC(CC)=NNc1cccc([N+](=O)[O-])c1` shows inconclusive: 7.47%
# In activity change, negative = inhibition, `Cc1ccc(-n2ncc3c(SCc4ccccn4)ncnc32)c(C)c1` shows inactive: 1.83%
# In Potency, `COc1cc(-c2nc(-c3ccc4c(c3)-c3ccccc3S4(=O)=O)c(-c3ccccc3)[nH]2)cc(OC)c1O` shows inconclusive: 0.92 µM [falling, full curve, poor fit]
# In activity change, negative = inhibition, `Cc1cc2c(s1)c1cnn(-c3ccccc3)c(=O)c1n2C` shows inconclusive: -2.41%

# (next part)

Structure (SMILES),Potency,"activity change, negative = inhibition"
COC(=O)c1ccccc1S(=O)c1snnc1C (centres undefined),–,inconclusive: -2.03%
CC[n+]1ccc(/C=C/c2ccc(N(C)C)cc2)c2ccccc21,"inconclusive: 11.2 µM [rising, single point]",–
COc1ccc(C(=O)NCCN2CCOCC2)c(OC)c1OC,–,inconclusive: 8.12%
COc1ccc(-c2nc3ccccc3s2)cc1O,"inconclusive: 16.4 µM [falling, partial curve]",–
Cc1nn(C)c(C)c1CN(C)C(=O)C1c2ccccc2Oc2ccccc21,–,inconclusive: -29.4%
CCCCn1c(=O)c(CCC(=O)OCC(=O)NCc2ccc(OC)c(OC)c2)nc2ccccc21,–,inconclusive: -1.68%
CCc1ccc2c(c1)C(C)=CC(C)(C)N2,–,inactive: -0.0668%
Cn1c2c(c(=O)n(C)c1=O)C1c3cc(Cl)ccc3OCC1CO2 (centres undefined),"inconclusive: 1.84 µM [falling, partial curve, poor fit]",–
Clc1ccc(-c2csc(Nc3cccnc3)n2)cc1,–,inconclusive: 3.13%
Cc1ccc(/C=C/C(=O)Nc2ccccc2C(N)=O)cc1,"inconclusive: 18.4 µM [falling, single point]",–
COc1ccc2[nH]c3c(N4CCN(Cc5ccc6c(c5)OCO6)CC4)ncnc3c2c1,–,inconclusive: -14.8%
CCCCNS(=O)(=O)c1ccc2nc(-c3cccnc3)cc(C(=O)NCCCOC(C)C)c2c1,"inconclusive: 39.8 µM [falling, partial curve, poor fit]",–
Cc1cccc(C2=NN(c3ccccc3)[C@@H](C(=O)N3CCOC3=O)[C@@H]2c2ccc(F)cc2)c1,–,inactive: 0.571%
C/C(Cn1nnc([N+](=O)[O-])n1)=N\NC(=O)c1ccc(O)cc1O,"inconclusive: 20.6 µM [falling, partial curve]",–
CCOc1cc(CNC2CCCC2)c(Cl)cc1OCC(=O)Nc1ccccc1,–,inconclusive: 8.49%
O=C(COc1cccc(NC(=O)c2cccs2)c1)c1ccc(F)cc1,–,inconclusive: -0.979%
COc1ccc(-c2cc(C(F)(F)F)c3c(N)c(C(=O)NCCSC)sc3n2)cc1,–,inconclusive: 7.63%
CSC1=NC2(CC(c3ccccc3)Oc3cc(O)ccc32)CC(C)(C)N1 (centres undefined),–,inactive: 11.8%
O=C(CCNS(=O)(=O)c1ccc(Cl)cc1)N1CCCCCC1,–,inactive: 0.464%
Cc1cccc2c1cnn2C(=O)CCC(=O)NCc1ccc(F)cc1,"inconclusive: 35.5 µM [falling, partial curve, poor fit]",–
CCOC(=O)CSc1nnc(NC(=O)NC(C)C)s1,"inconclusive: 35.5 µM [falling, single point]",–
O=c1[nH]c(=S)c2c(n1-c1ccccc1)CCC2,–,inconclusive: 7.06%
COc1ccc(N2CCN(CCNC(=O)Nc3ccc(C)cc3Cl)CC2)cc1,–,inconclusive: 0.536%
Cc1ccc(NS(=O)(=O)c2ccc(-c3cnc(C4CC4)o3)cc2)c(C)c1,"inconclusive: 6.31 µM [falling, partial curve]",–

# — PubChem BioAssay AID493014 (National Center for Advancing Translational Sciences (NCATS), 2011)
